Measurements as given in PubChem BioAssay AID1671190 (National Center for Advancing Translational Sciences (NCATS), 2021).
The whole screen tested about 580,000 compounds, of which about 6,100 (1.1%) were called active. The shares of active, inactive and inconclusive entries below differ from those in the screen. Calls follow the shape of the dose curve; as a rule, active = well fitted inhibition curve with a large enough effect; inconclusive = small, poorly fitted or top-dose-only effect, or another doubt; inactive = no such curve, though single readings can be large or run the other way. Potencies of inconclusive entries are doubtful fits and often do not repeat.

By UniProt entry, the sequences of proteins in these tests, tags left out. Where a name states a change or a piece, a line headed by the entry shows the natural chain unless it says otherwise.
UniProt P18054: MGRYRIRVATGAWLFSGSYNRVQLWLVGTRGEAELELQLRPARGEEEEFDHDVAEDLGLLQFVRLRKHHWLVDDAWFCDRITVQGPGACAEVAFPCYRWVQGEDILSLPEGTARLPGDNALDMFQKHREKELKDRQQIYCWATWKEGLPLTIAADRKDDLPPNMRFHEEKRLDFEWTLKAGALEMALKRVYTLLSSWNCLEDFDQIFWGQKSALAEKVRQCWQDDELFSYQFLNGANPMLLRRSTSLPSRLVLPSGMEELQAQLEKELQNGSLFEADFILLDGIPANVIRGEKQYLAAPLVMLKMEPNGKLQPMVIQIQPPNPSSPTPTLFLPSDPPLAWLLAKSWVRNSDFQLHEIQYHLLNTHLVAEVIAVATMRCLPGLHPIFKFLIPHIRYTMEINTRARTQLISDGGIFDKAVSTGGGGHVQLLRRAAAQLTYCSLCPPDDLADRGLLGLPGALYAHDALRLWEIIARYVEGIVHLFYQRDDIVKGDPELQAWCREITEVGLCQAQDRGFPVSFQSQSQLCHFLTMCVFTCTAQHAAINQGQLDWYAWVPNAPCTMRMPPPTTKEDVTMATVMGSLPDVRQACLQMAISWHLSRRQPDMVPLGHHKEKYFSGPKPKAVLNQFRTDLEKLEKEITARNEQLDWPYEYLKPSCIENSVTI

biological target: Polyunsaturated fatty acid lipoxygenase ALOX12 (Homo sapiens) (UniProt P18054); assay: Primary qHTS assay for inhibitors of human arachidonate 12S-lipoxygenase (ALOX12): Round 2; conditions: purified 12hLO, xylenol orange hydroperoxide absorbance; activity change, negative = inhibition: at 108 µM (top of the series) unless noted
In short: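 Purified human 12hLO (150 nM final) in 25 mM Hepes, 0.01% Triton X-100, pH 7.0 was preincubated 15 min at room temperature with compound. Then 40 uM arachidonic acid was added, 30 min. Hydroperoxide was read by Fe-XO absorbance ratio 573/405 nm.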
% is scaled to controls: 0 for no effect and ±100 for the full control effect; potency is read from the fitted curve at half-maximal effect.

| Structure (SMILES) | Potency | activity change, negative = inhibition |
| --- | --- | --- |
| CCOCCCNCc1ccc(C(=O)O)cc1 | inconclusive: 7.08 µM [inhibitor, partial curve, poor fit] | – |
| CCN(CC)S(=O)(=O)c1cccc(NC(=O)COC(=O)c2cc(C)oc2C)c1 | inactive | – |
| N#CC1=C(SCc2ccccc2)NC(=O)CC1c1ccco1 (stereo not given) | inconclusive: 44.7 µM [inhibitor, partial curve, poor fit] | – |
| FC(F)(F)c1cccc(CC2CN(Cc3ccccc3)Cc3ccccc3N2c2cc(Cl)cc(Cl)c2)c1 (stereo not given) | inconclusive: 35.5 µM [inhibitor, partial curve, poor fit] | – |
| COc1ccc(CCNC(=O)c2csc(NC(C)C)n2)cc1 | inactive | – |
| Cc1cc(OCCN2CCOCC2)ccc1Cl | inconclusive: 2.51 µM [inhibitor, full curve, poor fit] | – |
| CCOc1ccc(CCN2C(=S)N([C@@H](CC(C)C)CN3CCCC3CN3C(=S)NC[C@@H]3Cc3ccccc3)C[C@@H]2CC(C)C)cc1 (stereo not given in full) | inconclusive: 44.7 µM [inhibitor, partial curve, poor fit] | – |
| O=C(Cc1ccsc1)N1CCCn2cc(-c3ccccc3F)nc21 | inactive | – |
| CCC(CC)c1nnc(NC(=O)CCS(=O)(=O)Cc2ccccc2)s1 | inconclusive: 112 µM [inhibitor, partial curve, poor fit] | – |
| CCOC(=O)c1c(/N=C/c2cc(OC)cc([N+](=O)[O-])c2O)sc(C)c1C | inconclusive: 28.2 µM [inhibitor, partial curve, poor fit] | – |
| COC(=O)c1c(NC(=O)/C=C/c2ccc3c(c2)OCO3)sc(C)c1C | inactive | – |
| Cc1ccccc1-n1nc2c(c1NC(=O)COc1ccc(Cl)cc1)CS(=O)C2 (stereo not given) | inconclusive: 89.1 µM [inhibitor, single point] | – |
| Cc1nc(NC(=O)/C=C/c2ccccc2)sc1C(=O)Nc1ccc(Cl)cc1 | inactive | – |
| CCCc1ccc(C#N)c(SC2CC(=O)N(c3ccc(OC)cc3)C2=O)n1 (stereo not given) | inconclusive: 39.8 µM [inhibitor, partial curve] | – |
| COC(=O)c1cn(Cc2cccnc2)c(=O)c2ccccc12 | inconclusive: 0.251 µM [inhibitor, full curve, poor fit] | – |
| Cc1ccc(-n2nc(C)c3c2OC(N)=C(C#N)C3c2ccco2)cc1 (stereo not given) | inconclusive: 35.5 µM [inhibitor, full curve, poor fit] | – |
| COc1ccc(CNCCNC(=O)c2ccco2)c(OC)c1OC | inconclusive: 1.26 µM [inhibitor, full curve, poor fit] | – |
| O=c1[nH]cnc2cc(-c3ccc(Br)cc3)sc12 | inconclusive: 1.58 µM [inhibitor, single point] | – |
| CS(=O)(=O)Nc1ccc(-c2n[nH]c(=S)n2-c2ccccc2)cc1 | inconclusive: 8.91 µM [inhibitor, full curve, poor fit] | – |
| COc1ccc(CCNC(=O)C2CCCN(S(=O)(=O)c3cccc4nonc34)C2)cc1OC (stereo not given) | inconclusive: 44.7 µM [inhibitor, single point] | – |
| C=CCNC(=O)c1onc(CSc2ccc(F)cc2)c1C(=O)NCC=C | inconclusive: 56.2 µM [inhibitor, partial curve, poor fit] | – |
| C/C(=N/NC(=O)c1ccc(Br)s1)c1ccncc1 | inconclusive: 2.82 µM [inhibitor, partial curve, poor fit] | – |

| Structure (SMILES) | Potency | activity change, negative = inhibition |
| --- | --- | --- |
| CC(O)(c1cccc(F)c1)c1nc(-c2ccoc2)cs1 (stereo not given) | inconclusive: 44.7 µM [inhibitor, partial curve, poor fit] | – |
| COC(=O)c1ccc(COc2ccc3c(=O)c(-c4ccc(OC)cc4)c(C)oc3c2)cc1 | inactive | – |
| Cc1ccc(CN(C(=O)c2cc(=O)c3cc(C)cc(C)c3o2)C2CCS(=O)(=O)C2)cc1 (stereo not given) | inconclusive: 126 µM [inhibitor, single point] | – |
| CN1CC(O)C2=CC(=O)C(=O)C=C21 (stereo not given) | inconclusive: 31.6 µM [inhibitor, partial curve, poor fit] | – |
| O=S(=O)(Nc1ccc2c(c1)OCO2)c1ccc(F)c(F)c1 | inconclusive: 126 µM [inhibitor, single point] | – |
| COc1cc(/C=C2/C(=O)Nc3ccccc32)cc(OC)c1O | inactive | – |
| O=S(=O)(O)c1nc2ccccc2[nH]1 | inconclusive: 12.6 µM [inhibitor, partial curve, poor fit] | – |
| CCc1ccccc1NC(=O)c1nc(-c2ccccc2)oc1C | inactive | – |
| C[C@H](NS(=O)(=O)c1ccc(Cl)cc1)C(=O)OCC(=O)NC(=O)Nc1ccc2c(c1)OCCO2 | inconclusive: 5.01 µM [inhibitor, full curve, poor fit] | – |
| Cc1ccc(C)c(NC(=O)CC(C)(C)CC(=O)O)c1 | inconclusive: 141 µM [inhibitor, single point] | – |
| Cc1[nH]c2ccccc2c1C(C(=O)O)N1CCN(c2nsc3ccccc23)CC1 (stereo not given) | inconclusive: 50.1 µM [inhibitor, partial curve, poor fit] | – |
| Cc1ccnc(Nc2nc(-c3ccccc3)c3cc(Cl)ccc3n2)n1 | inconclusive: 70.8 µM [inhibitor, partial curve, poor fit] | – |
| Cc1cccn2c(=O)c3cc(C(N)=S)c(=N)n(CCCN4CCOCC4)c3nc12 | inactive | – |
| CCCc1noc(-c2ccn3c(CNC(=O)Cc4ccccc4OC)nnc3c2)n1 | active: 50.1 µM | – |
| Cc1cccn2c(CNC(=O)CCc3cc4n(n3)CCCNC4)cnc12 | inconclusive: 8.91 µM [inhibitor, full curve] | – |
| Cc1cc(C)n(CCC(=O)NCC2CCN(c3cc(-c4ccc(F)cc4)[nH]n3)CC2)n1 | inactive | – |
| Cc1cc2nc(C(F)(F)F)[nH]c(=O)n2n1 | inconclusive: 39.8 µM [inhibitor, partial curve, poor fit] | – |
| COc1cc(C2Nc3ccccc3-n3cc4c(=O)n(C)c(=O)n(C)c4c32)ccc1O (stereo not given) | inconclusive: 50.1 µM [inhibitor, partial curve, poor fit] | – |
| Cc1ccc(Cl)cc1-n1nc(-c2c(C)nc3scc(CC(=O)NCCC(C)C)n3c2=O)cc1C | inactive | – |
| Cc1oc(-c2cccs2)nc1CC(=O)Nc1ccccc1OCC(F)(F)F | inconclusive: 89.1 µM [inhibitor, partial curve, poor fit] | – |
| CCOC(=O)c1c(CSc2ccccc2)n(C)c2ccc(O)cc12 | inconclusive: 56.2 µM [inhibitor, partial curve, poor fit] | – |
| Oc1cccc(-c2sc3ccccc3c2-c2ccc(OCCN3CCCCC3)cc2)c1 | inconclusive: 44.7 µM [inhibitor, partial curve, poor fit] | – |

By substructure, the entries above with two or more sulfur atoms (3)

| Structure (SMILES) | Potency | activity change, negative = inhibition |
| --- | --- | --- |
| CCOc1ccc(CCN2C(=S)N([C@@H](CC(C)C)CN3CCCC3CN3C(=S)NC[C@@H]3Cc3ccccc3)C[C@@H]2CC(C)C)cc1 (stereo not given in full) | inconclusive: 44.7 µM [inhibitor, partial curve, poor fit] | – |
| CCC(CC)c1nnc(NC(=O)CCS(=O)(=O)Cc2ccccc2)s1 | inconclusive: 112 µM [inhibitor, partial curve, poor fit] | – |
| CS(=O)(=O)Nc1ccc(-c2n[nH]c(=S)n2-c2ccccc2)cc1 | inconclusive: 8.91 µM [inhibitor, full curve, poor fit] | – |

Next part:

| Structure (SMILES) | Potency | activity change, negative = inhibition |
| --- | --- | --- |
| CCOc1cc(/C=C2\SC(=O)N(c3ccc(O)cc3)C2=O)ccc1O | inconclusive: 44.7 µM [inhibitor, partial curve, poor fit] | – |
| COc1ccc2c(c1)c(CC(=O)Nc1cccc(F)c1C)c(C)n2C(=O)c1ccc(Cl)cc1 | inconclusive: 112 µM [inhibitor, partial curve, poor fit] | – |
| O=C(Nc1ccc(F)c(F)c1)c1cc(S(=O)(=O)N2CCc3ccccc32)ccc1F | inconclusive: 89.1 µM [inhibitor, single point] | – |
| CCCCOc1ccc2c(C)c(CC(C)C)c(=O)oc2c1 | inactive | – |
| COc1cccc(-n2ccn(CC(=O)Nc3ccccc3F)c(=O)c2=O)c1 | inconclusive: 141 µM [inhibitor, partial curve, poor fit] | – |
| CCC(=O)Nc1ccc2oc(-c3cc(F)c(F)cc3Cl)nc2c1 | inactive | – |
| CCOC(=O)Nc1cc2c(c(N)n1)N=C(c1ccccc1)CN2 | inactive | – |
| CCCCN(C)c1c(C)nc2ccc(C(=O)NCCc3c[nH]c4ccccc34)cn12 | inconclusive: 100 µM [inhibitor, partial curve, poor fit] | – |
| CC(C)(C)NC(=O)Cn1c(SCC(N)=O)nc2ccccc21 | inactive | – |
| CCOc1ccc(C(=O)NCC(c2ccco2)N2CCc3ccccc3C2)cc1 (stereo not given) | – | inconclusive: -33.6% [inhibitor] |
| Cc1ccc(-c2nc(C#N)c(NCc3cccc4c3OCO4)o2)cc1 | inconclusive: 39.8 µM [inhibitor, partial curve, poor fit] | – |
| O=[N+]([O-])c1cccc(/C=N\N2CCN(Cc3ccccc3Cl)CC2)c1 | inconclusive: 31.6 µM [inhibitor, partial curve] | – |
| COc1ccccc1N1CCN(C(C)C(=O)N2CC(C)OC(C)C2)CC1 (stereo not given) | inconclusive: 0.398 µM [inhibitor, full curve, poor fit] | – |
| CN(C)c1ccc(NC(=O)/C=C/c2ccccc2)cc1 | inconclusive: 50.1 µM [inhibitor, partial curve, poor fit] | – |
| Cc1ccc(CNS(=O)(=O)c2cc(C(=O)Nc3ccc(C(C)C)cc3)ccc2F)cc1 | inconclusive: 56.2 µM [inhibitor, partial curve, poor fit] | – |
| COc1ccc(C2=C(C)C(N3CCC(C(=O)NCc4ccco4)CC3)=NS2(=O)=O)cc1 | inconclusive: 100 µM [inhibitor, partial curve, poor fit] | – |
| CCN(CC)c1ccc(NC(=O)c2ccccc2F)cc1 | inconclusive: 20 µM [inhibitor, partial curve, poor fit] | – |
| CCCCCCCCCC(C)=O | inactive | – |
| c1ccc(N2OCC3Cn4c(nc5ccccc54)C32)cc1 (stereo not given) | inconclusive: 89.1 µM [inhibitor, partial curve, poor fit] | – |
| CCc1ccccc1NC(=O)Cn1cc(C(=O)c2ccc(Cl)cc2)c(=O)c2ccc(C)nc21 | inactive | – |
| Cc1ccc2[nH]c(C)c(CCN(Cc3cccs3)C(=S)NC(C)(C)C)c2c1 | inconclusive: 112 µM [inhibitor, partial curve, poor fit] | – |
